Only a part is listed here, and it is no random draw. The data scatter; read single values as rough.
compound: COC(=O)/C=C/c1ccccc1 [methyl cinnamate]; assay: log2 ratio of iodoacetamide-alkyne labeling of the cysteine site, DMSO over compound (competition); higher = stronger covalent engagement of the cysteine by the compound, active = 1 or more; settings: 500 µM; treatment time 1 h; system: HEK293T cell lysate
Outline: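 Three replicates, each with duplicate channels, were prepared from HEK293T lysate (2 mg/mL) treated with vehicle or electrophile at 500 µM for 1 h at ambient temperature. Iodoacetamide alkyne was then applied for 1 h, and samples were clicked to sCIP-TMT reagents, pooled, trypsin-digested overnight at 37 °C, enriched on streptavidin, acid-eluted and analysed on Orbitrap Eclipse LC-MS/MS with FAIMS, with FragPipe quantification. The log2 competition ratio per cysteine is the mean control-channel divided by the mean compound-channel reporter intensity. Cysteines quantified in only one replicate were left out.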

By UniProt entry, the sequences of proteins in these tests, tags left out. Where a name states a change or a piece, a line headed by the entry shows the natural chain unless it says otherwise.
UniProt Q9NR09, whole entry, looked up: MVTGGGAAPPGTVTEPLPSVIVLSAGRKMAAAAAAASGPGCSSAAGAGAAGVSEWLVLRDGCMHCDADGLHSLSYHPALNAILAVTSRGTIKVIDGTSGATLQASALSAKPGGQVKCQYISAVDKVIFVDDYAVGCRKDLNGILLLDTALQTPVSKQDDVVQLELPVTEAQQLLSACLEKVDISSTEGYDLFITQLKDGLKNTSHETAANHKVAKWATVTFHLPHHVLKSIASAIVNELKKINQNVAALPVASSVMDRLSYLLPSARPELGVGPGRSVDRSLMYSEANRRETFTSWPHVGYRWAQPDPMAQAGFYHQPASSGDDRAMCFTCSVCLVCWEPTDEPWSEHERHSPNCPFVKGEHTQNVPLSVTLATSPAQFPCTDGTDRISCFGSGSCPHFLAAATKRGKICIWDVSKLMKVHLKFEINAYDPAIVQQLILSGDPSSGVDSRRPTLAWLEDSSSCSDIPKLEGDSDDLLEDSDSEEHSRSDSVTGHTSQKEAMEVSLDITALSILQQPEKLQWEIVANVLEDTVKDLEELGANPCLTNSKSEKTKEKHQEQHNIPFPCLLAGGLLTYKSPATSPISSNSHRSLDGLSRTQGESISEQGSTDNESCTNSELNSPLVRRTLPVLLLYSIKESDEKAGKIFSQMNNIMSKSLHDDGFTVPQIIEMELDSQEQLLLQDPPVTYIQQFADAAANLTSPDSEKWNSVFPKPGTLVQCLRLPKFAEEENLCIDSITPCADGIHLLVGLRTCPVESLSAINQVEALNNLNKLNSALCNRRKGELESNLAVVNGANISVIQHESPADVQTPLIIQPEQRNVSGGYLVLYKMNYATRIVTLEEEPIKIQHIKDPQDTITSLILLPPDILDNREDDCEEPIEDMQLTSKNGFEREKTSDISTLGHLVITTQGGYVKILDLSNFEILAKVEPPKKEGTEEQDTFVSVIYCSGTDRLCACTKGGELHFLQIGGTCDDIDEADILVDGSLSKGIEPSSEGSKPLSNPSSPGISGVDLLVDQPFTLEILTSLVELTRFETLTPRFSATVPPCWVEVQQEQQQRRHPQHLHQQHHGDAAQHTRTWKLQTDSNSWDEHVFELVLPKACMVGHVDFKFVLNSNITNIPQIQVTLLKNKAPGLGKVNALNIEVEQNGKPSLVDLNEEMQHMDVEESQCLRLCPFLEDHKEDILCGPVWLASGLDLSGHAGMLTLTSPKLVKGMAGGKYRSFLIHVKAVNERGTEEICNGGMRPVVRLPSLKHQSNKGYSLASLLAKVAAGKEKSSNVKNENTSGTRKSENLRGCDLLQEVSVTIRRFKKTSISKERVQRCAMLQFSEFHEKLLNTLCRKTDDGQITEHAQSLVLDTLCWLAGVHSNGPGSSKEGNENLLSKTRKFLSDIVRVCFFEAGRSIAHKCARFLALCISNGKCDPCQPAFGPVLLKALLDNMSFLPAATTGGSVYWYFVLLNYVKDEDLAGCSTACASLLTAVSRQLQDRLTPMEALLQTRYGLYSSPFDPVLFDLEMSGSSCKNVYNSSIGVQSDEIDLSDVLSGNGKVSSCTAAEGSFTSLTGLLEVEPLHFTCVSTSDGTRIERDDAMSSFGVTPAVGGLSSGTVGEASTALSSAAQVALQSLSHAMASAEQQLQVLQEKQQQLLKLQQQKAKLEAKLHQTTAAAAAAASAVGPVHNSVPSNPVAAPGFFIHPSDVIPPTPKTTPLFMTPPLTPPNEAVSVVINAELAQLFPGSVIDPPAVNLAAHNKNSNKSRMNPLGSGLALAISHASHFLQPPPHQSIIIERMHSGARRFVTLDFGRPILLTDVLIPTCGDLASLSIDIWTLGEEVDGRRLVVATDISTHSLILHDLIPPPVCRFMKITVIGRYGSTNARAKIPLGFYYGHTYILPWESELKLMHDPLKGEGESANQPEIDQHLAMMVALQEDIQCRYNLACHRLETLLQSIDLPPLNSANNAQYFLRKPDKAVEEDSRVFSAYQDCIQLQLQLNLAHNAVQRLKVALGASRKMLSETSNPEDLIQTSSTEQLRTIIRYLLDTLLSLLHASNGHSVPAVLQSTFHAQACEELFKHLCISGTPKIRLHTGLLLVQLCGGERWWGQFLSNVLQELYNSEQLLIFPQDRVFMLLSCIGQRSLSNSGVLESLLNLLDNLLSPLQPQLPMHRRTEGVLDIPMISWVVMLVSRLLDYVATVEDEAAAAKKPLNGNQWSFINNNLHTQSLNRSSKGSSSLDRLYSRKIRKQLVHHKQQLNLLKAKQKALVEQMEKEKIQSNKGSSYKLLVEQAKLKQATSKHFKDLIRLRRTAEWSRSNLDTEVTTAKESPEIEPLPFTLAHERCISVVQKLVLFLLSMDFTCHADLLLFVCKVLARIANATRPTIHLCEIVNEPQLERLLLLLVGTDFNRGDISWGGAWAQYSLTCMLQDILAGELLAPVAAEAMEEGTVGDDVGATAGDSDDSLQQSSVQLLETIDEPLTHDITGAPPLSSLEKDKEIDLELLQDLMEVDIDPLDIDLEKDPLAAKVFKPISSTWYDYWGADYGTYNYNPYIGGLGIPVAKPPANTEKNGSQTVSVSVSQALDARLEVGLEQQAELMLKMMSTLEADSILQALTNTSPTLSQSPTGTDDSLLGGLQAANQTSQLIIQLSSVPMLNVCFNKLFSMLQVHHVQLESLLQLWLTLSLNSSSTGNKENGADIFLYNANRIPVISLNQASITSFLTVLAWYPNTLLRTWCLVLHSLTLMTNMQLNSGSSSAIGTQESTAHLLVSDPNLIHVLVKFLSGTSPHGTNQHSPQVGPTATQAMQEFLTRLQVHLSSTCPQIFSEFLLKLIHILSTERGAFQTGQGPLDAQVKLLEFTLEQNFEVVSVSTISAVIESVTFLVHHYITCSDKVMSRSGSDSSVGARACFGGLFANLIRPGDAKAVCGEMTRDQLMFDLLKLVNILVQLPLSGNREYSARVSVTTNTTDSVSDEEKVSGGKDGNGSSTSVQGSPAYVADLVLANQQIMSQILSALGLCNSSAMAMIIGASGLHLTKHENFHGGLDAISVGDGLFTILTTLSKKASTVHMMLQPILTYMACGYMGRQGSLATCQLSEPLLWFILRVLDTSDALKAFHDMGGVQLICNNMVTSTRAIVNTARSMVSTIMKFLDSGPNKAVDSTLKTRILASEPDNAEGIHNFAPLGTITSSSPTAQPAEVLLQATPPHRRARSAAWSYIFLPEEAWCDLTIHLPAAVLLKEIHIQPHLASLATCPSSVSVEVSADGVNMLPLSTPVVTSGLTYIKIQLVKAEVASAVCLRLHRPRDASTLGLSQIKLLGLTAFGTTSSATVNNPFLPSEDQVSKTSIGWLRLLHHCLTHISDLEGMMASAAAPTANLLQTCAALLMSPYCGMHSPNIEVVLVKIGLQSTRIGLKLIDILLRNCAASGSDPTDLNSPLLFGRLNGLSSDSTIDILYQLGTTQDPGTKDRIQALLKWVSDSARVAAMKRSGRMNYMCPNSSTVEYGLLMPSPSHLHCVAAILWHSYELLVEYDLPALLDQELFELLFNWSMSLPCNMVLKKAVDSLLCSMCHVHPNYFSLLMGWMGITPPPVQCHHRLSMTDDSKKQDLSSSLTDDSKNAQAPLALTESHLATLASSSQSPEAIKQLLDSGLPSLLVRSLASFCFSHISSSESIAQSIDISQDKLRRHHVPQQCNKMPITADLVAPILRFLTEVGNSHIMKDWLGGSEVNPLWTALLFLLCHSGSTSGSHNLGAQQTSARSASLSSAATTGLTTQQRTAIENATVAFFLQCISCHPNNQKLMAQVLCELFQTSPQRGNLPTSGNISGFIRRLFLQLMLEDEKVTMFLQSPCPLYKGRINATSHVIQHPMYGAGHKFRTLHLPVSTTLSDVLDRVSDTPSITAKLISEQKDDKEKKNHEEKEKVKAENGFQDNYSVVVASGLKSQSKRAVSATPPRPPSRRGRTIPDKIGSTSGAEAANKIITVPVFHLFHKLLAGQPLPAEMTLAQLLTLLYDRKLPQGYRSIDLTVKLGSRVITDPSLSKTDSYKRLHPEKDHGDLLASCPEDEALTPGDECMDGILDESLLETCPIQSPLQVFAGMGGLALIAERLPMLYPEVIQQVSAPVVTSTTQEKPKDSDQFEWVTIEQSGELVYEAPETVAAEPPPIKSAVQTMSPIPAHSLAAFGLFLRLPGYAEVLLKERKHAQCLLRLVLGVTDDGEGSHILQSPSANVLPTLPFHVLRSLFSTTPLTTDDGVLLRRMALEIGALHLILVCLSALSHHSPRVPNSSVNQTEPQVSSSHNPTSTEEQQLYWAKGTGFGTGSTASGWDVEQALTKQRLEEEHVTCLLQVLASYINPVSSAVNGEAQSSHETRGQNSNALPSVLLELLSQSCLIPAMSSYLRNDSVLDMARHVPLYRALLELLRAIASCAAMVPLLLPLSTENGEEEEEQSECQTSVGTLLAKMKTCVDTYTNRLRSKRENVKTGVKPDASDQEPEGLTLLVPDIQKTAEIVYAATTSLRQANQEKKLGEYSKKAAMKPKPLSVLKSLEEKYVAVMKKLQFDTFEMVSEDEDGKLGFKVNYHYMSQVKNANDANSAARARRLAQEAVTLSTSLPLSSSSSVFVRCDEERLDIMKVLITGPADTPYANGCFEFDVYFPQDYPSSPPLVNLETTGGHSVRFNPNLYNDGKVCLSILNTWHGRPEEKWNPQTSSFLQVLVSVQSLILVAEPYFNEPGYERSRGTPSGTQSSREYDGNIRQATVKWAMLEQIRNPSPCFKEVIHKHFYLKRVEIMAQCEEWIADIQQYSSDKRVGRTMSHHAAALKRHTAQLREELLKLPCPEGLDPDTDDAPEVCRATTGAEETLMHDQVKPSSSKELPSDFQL
UniProt Q9NQS7, whole entry: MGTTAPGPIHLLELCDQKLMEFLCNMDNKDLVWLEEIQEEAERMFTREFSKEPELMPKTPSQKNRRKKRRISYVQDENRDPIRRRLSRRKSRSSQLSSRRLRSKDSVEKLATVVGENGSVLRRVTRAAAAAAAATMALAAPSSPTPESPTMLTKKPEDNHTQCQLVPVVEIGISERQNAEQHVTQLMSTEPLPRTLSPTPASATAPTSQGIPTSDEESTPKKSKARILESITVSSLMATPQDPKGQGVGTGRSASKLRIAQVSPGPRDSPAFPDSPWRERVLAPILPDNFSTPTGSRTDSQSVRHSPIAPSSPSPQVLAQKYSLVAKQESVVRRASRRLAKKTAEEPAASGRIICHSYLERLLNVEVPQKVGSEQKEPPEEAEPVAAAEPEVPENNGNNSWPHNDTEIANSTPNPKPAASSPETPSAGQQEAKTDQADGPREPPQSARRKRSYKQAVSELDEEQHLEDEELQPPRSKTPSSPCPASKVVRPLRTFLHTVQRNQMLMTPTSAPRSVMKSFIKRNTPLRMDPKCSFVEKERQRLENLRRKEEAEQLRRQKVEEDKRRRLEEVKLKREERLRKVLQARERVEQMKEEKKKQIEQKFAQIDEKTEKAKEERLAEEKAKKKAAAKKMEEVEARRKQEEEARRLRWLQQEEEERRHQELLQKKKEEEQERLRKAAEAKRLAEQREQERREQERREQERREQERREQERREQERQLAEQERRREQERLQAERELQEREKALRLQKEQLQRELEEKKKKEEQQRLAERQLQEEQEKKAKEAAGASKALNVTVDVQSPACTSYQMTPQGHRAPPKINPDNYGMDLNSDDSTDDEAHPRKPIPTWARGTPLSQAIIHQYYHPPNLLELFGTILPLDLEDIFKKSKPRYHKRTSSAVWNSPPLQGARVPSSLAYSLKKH
UniProt Q9NPH2: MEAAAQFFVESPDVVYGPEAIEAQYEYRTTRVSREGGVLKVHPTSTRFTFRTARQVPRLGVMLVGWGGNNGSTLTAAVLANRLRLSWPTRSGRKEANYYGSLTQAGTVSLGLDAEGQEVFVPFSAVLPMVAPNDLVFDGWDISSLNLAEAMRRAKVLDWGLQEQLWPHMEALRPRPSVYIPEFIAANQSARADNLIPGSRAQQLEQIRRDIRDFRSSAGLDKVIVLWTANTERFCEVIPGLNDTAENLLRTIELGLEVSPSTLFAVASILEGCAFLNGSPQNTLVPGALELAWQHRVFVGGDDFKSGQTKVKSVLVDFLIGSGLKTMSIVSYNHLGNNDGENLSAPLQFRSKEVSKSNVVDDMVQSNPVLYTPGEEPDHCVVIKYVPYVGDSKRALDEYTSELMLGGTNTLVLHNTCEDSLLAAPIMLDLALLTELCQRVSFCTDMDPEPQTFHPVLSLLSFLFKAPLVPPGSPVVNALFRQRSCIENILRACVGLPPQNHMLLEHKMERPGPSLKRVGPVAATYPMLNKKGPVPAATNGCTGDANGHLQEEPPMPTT
UniProt Q9NQT4, whole entry: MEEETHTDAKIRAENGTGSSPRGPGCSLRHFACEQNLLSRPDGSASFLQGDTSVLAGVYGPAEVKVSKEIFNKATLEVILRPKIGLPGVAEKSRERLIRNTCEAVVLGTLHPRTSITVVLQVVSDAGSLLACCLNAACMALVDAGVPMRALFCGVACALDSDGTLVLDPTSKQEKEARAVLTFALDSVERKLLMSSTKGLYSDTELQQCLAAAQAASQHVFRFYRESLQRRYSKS

log2 ratio of iodoacetamide-alkyne labeling, inactive:
AAAS C279 (UniProt Q9NRG9) 0.698, NOL11 C368 (UniProt Q9H8H0) -0.0289, COPS7B C240 (UniProt Q9H9Q2) 0.0494, BIRC6 C381 (UniProt Q9NR09) 0.297, UniProt Q9NUP1_C211 0.169, LANCL2 C187 (UniProt Q9NS86) 0.0543, SMC4 C110 (UniProt Q9NTJ3) 0.0647, INCENP C163 (UniProt Q9NQS7) -0.0141, CCDC86 C116 (UniProt Q9H6F5) 0.382, EHD1 C138 (UniProt Q9H4M9) 0.0616, BIRC6 C1357 (UniProt Q9NR09) 0.0137, ISYNA1 C235 (UniProt Q9NPH2) -0.195, HEATR1 C1237 (UniProt Q9H583) -0.0185, RAB18 C155 (UniProt Q9NP72) 0.515, EXOSC5 C26 (UniProt Q9NQT4) 0.173, MBIP C243 (UniProt Q9NS73) 0.122

Reference: the supplement of paper PMC11006884
